Test: Extractability in offset printing (HPLC of contact solution)
Details: ethanol/water 10/90, 200 mL, 10 days at 40° C., mean of triplicate

Structure (SMILES)	Amount extracted, EtOH 10%
CCCCCCCCCCCCOC(=O)c1ccc2c(=O)c3cc(C)ccc3sc2c1 [Example 1, dodecyl-7-methyl-9-oxo-9H-thioxanthene-3-carboxylate]	<50 ppb
C=CCOC(=O)c1ccc2c(=O)c3cc(C)ccc3sc2c1 [Example 4, allyl 7-methyl-9-oxo-9H-thioxanthene-3-carboxylate]	<50 ppb
Cc1ccc2sc3cc(C(=O)N(CC(C)C)CC(C)C)ccc3c(=O)c2c1 [Example 5, N,N-disobutyl 7-methyl-9-oxo-9H-thioxanthene-3-carboxamide]	<50 ppb
CC(C)c1ccc2sc3ccccc3c(=O)c2c1 [ITX, isopropyl thioxanthone, reference compound]	75 ppb

Same assay, conditions: ethanol/water 95/5, 200 mL, 10 days at 40° C., mean of triplicate

Structure (SMILES)	Amount extracted, EtOH 95%
CCCCCCCCCCCCOC(=O)c1ccc2c(=O)c3cc(C)ccc3sc2c1 [Example 1, dodecyl-7-methyl-9-oxo-9H-thioxanthene-3-carboxylate]	<50 ppb
C=CCOC(=O)c1ccc2c(=O)c3cc(C)ccc3sc2c1 [Example 4, allyl 7-methyl-9-oxo-9H-thioxanthene-3-carboxylate]	76 ppb
Cc1ccc2sc3cc(C(=O)N(CC(C)C)CC(C)C)ccc3c(=O)c2c1 [Example 5, N,N-disobutyl 7-methyl-9-oxo-9H-thioxanthene-3-carboxamide]	<50 ppb
CC(C)c1ccc2sc3ccccc3c(=O)c2c1 [ITX, isopropyl thioxanthone, reference compound]	749 ppb

Source: patent US8933142B2, “Low-extractable thioxanthones” (Lamberti Spa, priority 2010, dated 2015)
